We go through one molecule from US20140308209A1.

Results are given in words; binding and its absence hold for the method and conditions named. Some results given as binding are weak or reduced against the parent protein; the word gives no strength. For some assays here: Sequences can lack the tags named with a protein.

Assay [1] deals with T1, human Siglec-10 (sialic acid binding Ig-like lectin-10) on human CD4+ T-cells (human) (UniProt Q96LC7).
T1 sequence: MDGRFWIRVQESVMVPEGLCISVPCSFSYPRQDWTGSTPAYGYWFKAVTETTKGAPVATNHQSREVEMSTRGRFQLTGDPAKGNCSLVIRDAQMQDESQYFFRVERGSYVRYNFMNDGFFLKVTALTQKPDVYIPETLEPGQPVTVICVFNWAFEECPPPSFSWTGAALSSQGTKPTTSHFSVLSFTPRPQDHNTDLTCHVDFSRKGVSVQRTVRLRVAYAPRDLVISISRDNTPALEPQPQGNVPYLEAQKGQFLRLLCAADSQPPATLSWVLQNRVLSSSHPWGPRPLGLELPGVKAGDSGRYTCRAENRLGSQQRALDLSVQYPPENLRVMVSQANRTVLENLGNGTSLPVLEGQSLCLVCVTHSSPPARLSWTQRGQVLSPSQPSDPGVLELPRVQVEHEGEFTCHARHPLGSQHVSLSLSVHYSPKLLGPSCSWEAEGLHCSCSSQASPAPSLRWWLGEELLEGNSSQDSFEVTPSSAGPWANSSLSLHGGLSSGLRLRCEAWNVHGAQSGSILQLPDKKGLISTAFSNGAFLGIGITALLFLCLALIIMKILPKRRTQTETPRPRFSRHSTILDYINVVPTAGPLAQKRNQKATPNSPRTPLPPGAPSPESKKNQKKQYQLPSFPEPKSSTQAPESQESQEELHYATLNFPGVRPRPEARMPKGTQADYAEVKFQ
Briefly: statement in the methods of Example 20, referring back to Example 13.

The target in assay [2] is T2, recombinant human Siglec-10-Fc (human) (UniProt Q96LC7).
T2 sequence: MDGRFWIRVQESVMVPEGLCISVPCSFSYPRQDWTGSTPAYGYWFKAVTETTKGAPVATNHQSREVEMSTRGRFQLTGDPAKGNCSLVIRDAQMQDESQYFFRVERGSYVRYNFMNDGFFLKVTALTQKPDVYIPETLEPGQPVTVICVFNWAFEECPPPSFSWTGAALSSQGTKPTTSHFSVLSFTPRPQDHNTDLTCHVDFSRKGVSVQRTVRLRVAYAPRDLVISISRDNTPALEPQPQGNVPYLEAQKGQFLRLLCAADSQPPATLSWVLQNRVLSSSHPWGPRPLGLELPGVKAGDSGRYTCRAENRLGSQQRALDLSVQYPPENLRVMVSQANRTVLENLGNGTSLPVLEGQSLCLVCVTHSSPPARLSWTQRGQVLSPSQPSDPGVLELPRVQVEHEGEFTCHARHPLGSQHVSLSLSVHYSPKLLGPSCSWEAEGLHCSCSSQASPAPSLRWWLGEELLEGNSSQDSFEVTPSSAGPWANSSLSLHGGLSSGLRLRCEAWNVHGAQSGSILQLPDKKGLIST
The assay can be described thus: inferred from reversal of suppression by CD52hi CD4+ T-cells with soluble Siglec-10-Fc (data not shown).

With GQNDTSQTSSPS (asparagine (N)-linked terminal carbohydrate) [native soluble CD52 glycoprotein (human, released from CD52hi CD4+ T-cells and from cell lines)], the binding entry in assay [1] and in assay [2] was “binds” in each case.
